Reference: PMC3355116
No constants are given. Whether binding was seen depends on the method and setting. In cells and extracts the contact can be indirect. A result given as binding can be weak or reduced; the word gives no strength. Tags and fused reporters may be left off the sequences shown.

Legend:
[1] = target: T1, Flag-ETS2 (human) (UniProt P15036); assay: co-IP; cotransfected Drosophila S2 cells lysed by sonication (50 mM Tris pH 7.5, 100 mM NaCl, 2 mM EDTA, 2 mM EGTA, 1% NP40); Flag conjugated agarose beads 3 hours at 4°C; western blot
T1 sequence: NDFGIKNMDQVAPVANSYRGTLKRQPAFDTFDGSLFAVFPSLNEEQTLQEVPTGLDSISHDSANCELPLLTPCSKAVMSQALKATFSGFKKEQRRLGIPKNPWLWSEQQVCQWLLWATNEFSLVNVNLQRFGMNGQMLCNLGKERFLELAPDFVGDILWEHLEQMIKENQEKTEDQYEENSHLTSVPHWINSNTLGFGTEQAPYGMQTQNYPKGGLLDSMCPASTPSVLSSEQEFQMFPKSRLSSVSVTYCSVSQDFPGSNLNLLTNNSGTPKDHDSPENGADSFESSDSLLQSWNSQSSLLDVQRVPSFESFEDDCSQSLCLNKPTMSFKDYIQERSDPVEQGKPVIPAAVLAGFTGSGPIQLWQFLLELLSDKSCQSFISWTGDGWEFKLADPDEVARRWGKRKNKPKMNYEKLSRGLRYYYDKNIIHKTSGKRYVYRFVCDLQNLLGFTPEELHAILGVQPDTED

[2] = target: T2, Flag-ETS1 (human) (UniProt P14921); assay: as above
T2 sequence: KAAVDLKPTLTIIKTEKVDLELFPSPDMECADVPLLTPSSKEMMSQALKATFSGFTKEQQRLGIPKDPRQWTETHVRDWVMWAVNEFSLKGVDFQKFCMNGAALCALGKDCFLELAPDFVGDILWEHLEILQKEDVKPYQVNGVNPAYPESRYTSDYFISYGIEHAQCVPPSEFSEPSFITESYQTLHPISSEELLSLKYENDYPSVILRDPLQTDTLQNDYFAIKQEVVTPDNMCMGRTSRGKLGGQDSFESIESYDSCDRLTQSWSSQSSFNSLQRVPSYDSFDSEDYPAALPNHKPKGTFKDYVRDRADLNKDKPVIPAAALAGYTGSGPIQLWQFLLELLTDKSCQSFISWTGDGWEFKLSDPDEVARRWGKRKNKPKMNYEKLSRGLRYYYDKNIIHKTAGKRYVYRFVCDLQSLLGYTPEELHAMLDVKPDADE

Substance: Myc-Mae (Drosophila)
- binding [1]: binds
- binding [2]: binds
